The target in this test is T1, SPM1 (T. gondii) (UniProt S8F1Y1).
T1 sequence: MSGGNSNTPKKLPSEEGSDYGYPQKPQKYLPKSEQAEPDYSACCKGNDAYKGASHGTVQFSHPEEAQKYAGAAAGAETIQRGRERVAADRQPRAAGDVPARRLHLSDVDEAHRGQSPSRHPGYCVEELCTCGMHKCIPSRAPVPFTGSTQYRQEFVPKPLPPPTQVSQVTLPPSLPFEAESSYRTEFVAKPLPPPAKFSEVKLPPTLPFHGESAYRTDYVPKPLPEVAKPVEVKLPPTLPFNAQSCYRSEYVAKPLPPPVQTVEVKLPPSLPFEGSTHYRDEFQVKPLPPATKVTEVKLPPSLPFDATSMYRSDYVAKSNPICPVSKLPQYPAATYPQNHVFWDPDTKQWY
Briefly: cryo-EM structure; ex vivo cortical MTs in cholic acid extracted T. gondii parasites, not separated from the IMC; single-particle analysis with 8-nm periodicity; overall 4.0 Å, sub-regions of two protofilaments around 3.4 Å; focused 3D classification for TrxL2 bound and unbound at sites x and y.

These are yes or no findings as the source states them, for the method shown. Binding calls can cover weak binding; strength is not graded here.

For the substance TrxL1 (T. gondii), the binding result is “binds”.
To TrxL2 (T. gondii) belongs “binds”.

These data come from publication PMC8144581.
